Four molecules from publication doi:10.1101/2024.11.12.621593 can be followed below.

The chains behind the UniProt entries cited, without tags or fusion partners.
UniProt Q92547: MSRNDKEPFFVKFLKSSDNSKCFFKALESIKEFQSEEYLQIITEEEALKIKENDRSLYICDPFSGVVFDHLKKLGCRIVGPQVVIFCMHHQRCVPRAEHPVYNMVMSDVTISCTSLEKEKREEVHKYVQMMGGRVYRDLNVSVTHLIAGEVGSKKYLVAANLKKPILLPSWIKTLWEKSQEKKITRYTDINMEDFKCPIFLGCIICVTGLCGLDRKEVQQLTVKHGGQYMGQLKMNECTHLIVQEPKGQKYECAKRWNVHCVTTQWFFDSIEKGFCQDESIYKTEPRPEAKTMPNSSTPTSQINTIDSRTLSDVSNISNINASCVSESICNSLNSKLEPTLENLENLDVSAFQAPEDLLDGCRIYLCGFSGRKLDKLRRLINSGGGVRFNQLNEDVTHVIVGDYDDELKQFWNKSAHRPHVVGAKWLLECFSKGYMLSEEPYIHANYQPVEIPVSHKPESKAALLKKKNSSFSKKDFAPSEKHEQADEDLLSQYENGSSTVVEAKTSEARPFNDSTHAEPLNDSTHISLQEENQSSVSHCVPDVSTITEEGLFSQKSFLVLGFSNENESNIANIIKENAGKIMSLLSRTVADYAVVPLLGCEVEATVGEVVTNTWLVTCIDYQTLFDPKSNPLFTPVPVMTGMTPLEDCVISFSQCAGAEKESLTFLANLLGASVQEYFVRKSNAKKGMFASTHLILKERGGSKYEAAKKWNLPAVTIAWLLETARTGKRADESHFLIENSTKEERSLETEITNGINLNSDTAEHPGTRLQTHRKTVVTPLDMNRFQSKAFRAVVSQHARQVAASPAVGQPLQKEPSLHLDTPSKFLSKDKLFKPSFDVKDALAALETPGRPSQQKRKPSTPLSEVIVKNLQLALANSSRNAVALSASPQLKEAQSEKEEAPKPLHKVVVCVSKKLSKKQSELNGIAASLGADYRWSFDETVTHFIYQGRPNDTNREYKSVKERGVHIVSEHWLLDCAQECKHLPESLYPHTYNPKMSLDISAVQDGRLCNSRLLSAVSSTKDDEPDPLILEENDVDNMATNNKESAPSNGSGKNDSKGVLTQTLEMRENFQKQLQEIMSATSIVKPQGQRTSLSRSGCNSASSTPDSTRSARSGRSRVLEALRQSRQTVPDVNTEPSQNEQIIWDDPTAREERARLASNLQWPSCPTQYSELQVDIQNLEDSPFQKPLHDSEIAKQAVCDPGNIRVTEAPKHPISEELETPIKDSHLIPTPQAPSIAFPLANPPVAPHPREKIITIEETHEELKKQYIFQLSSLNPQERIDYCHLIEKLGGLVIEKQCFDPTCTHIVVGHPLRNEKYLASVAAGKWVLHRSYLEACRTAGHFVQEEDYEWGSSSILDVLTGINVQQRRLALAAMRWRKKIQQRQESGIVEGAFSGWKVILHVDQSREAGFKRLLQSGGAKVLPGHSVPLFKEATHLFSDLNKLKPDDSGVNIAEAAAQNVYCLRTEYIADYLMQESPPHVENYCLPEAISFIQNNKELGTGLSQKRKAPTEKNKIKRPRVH

In experiment [1] the target is TOPBP1 (endogenous) (human (endogenous in HEK293TN)) (UniProt Q92547). Put plainly: affinity purification with mass spectrometry.
The target is the same in experiment [2]. Description: affinity purification with mass spectrometry. This is another data set of the same source.

Where two headings read alike, the source gives them in different places. Results are given in words; binding and its absence hold for the method and conditions named. In cells and extracts the contact can be indirect. A yes stands for co-enrichment or nearness to the bait. Other partners may have been found.

B1: MUS81 (endogenous) (protein, UniProt Q96NY9 1-551)
chain: MAAPVRLGRKRPLPACPNPLFVRWLTEWRDEATRSRRRTRFVFQKALRSLRRYPLPLRSGKEAKILQHFGDGLCRMLDERLQRHRTSGGDHAPDSPSGENSPAPQGRLAEVQDSSMPVPAQPKAGGSGSYWPARHSGARVILLVLYREHLNPNGHHFLTKEELLQRCAQKSPRVAPGSARPWPALRSLLHRNLVLRTHQPARYSLTPEGLELAQKLAESEGLSLLNVGIGPKEPPGEETAVPGAASAELASEAGVQQQPLELRPGEYRVLLCVDIGETRGGGHRPELLRELQRLHVTHTVRKLHVGDFVWVAQETNPRDPANPGELVLDHIVERKRLDDLCSSIIDGRFREQKFRLKRCGLERRVYLVEEHGSVHNLSLPESTLLQAVTNTQVIDGFFVKRTADIKESAAYLALLTRGLQRLYQGHTLRSRPWGTPGNPESGAMTSPNPLCSLLTFSDFNAGAIKNKAQSVREVFARQLMQVRGVSGEKAAALVDRYSTPASLLAAYDACATPKEQETLLSTIKCGRLQRNLGPALSRTLSQLYCSYGPLT
Regarding B1, in experiment [1], the binding result is listed as “binds”.

B2: ERCC1 (endogenous) (protein, UniProt P07992 1-297)
chain: MDPGKDKEGVPQPSGPPARKKFVIPLDEDEVPPGVAKPLFRSTQSLPTVDTSAQAAPQTYAEYAISQPLEGAGATCPTGSEPLAGETPNQALKPGAKSNSIIVSPRQRGNPVLKFVRNVPWEFGDVIPDYVLGQSTCALFLSLRYHNLHPDYIHGRLQSLGKNFALRVLLVQVDVKDPQQALKELAKMCILADCTLILAWSPEEAGRYLETYKAYEQKPADLLMEKLEQDFVSRVTECLTTVKSVNKTDSQTLLTTFGSLEQLIAASREDLALCPGLGPQKARRLFDVLHEPFLKVP
B2: the binding result in experiment [1] is listed as “binds”.

B3: EME1 (endogenous) (protein, UniProt Q96AY2 1-570)
chain: MALKKSSPSLDSGDSDSEELPTFAFLKKEPSSTKRRQPEREEKIVVVDISDCEASCPPAPELFSPPVPEIAETVTQTQPVRLLSSESEDEEEFIPLAQRLTCKFLTHKQLSPEDSSSPVKSVLDHQNNEGASCDWKKPFPKIPEVPLHDTPERSAADNKDLILDPCCQLPAYLSTCPGQSSSLAVTKTNSDILPPQKKTKPSQKVQGRGSHGCRQQRQARQKESTLRRQERKNAALVTRMKAQRPEECLKHIIVVLDPVLLQMEGGGQLLGALQTMECRCVIEAQAVPCSVTWRRRAGPSEDREDWVEEPTVLVLLRAEAFVSMIDNGKQGSLDSTMKGKETLQGFVTDITAKTAGKALSLVIVDQEKCFSAQNPPRRGKQGANKQTKKQQQRQPEASIGSMVSRVDAEEALVDLQLHTEAQAQIVQSWKELADFTCAFTKAVAEAPFKKLRDETTFSFCLESDWAGGVKVDLAGRGLALVWRRQIQQLNRVSLEMASAVVNAYPSPQLLVQAYQQCFSDKERQNLLADIQVRRGEGVTSTSRRIGPELSRRIYLQMTTLQPHLSLDSAD
In the case of B3, the binding result in experiment [1] and in experiment [2] was “binds” in each case.

B4: ERCC4/XPF (endogenous) (protein, UniProt Q92889 1-916)
chain: MESGQPARRIAMAPLLEYERQLVLELLDTDGLVVCARGLGADRLLYHFLQLHCHPACLVLVLNTQPAEEEYFINQLKIEGVEHLPRRVTNEITSNSRYEVYTQGGVIFATSRILVVDFLTDRIPSDLITGILVYRAHRIIESCQEAFILRLFRQKNKRGFIKAFTDNAVAFDTGFCHVERVMRNLFVRKLYLWPRFHVAVNSFLEQHKPEVVEIHVSMTPTMLAIQTAILDILNACLKELKCHNPSLEVEDLSLENAIGKPFDKTIRHYLDPLWHQLGAKTKSLVQDLKILRTLLQYLSQYDCVTFLNLLESLRATEKAFGQNSGWLFLDSSTSMFINARARVYHLPDAKMSKKEKISEKMEIKEGEETKKELVLESNPKWEALTEVLKEIEAENKESEALGGPGQVLICASDDRTCSQLRDYITLGAEAFLLRLYRKTFEKDSKAEEVWMKFRKEDSSKRIRKSHKRPKDPQNKERASTKERTLKKKKRKLTLTQMVGKPEELEEEGDVEEGYRREISSSPESCPEEIKHEEFDVNLSSDAAFGILKEPLTIIHPLLGCSDPYALTRVLHEVEPRYVVLYDAELTFVRQLEIYRASRPGKPLRVYFLIYGGSTEEQRYLTALRKEKEAFEKLIREKASMVVPEEREGRDETNLDLVRGTASADVSTDTRKAGGQEQNGTQQSIVVDMREFRSELPSLIHRRGIDIEPVTLEVGDYILTPEMCVERKSISDLIGSLNNGRLYSQCISMSRYYKRPVLLIEFDPSKPFSLTSRGALFQEISSNDISSKLTLLTLHFPRLRILWCPSPHATAELFEELKQSKPQPDAATALAITADSETLPESEKYNPGPQDFLLKMPGVNAKNCRSLMHHVKNIAELAALSQDELTSILGNAANAKQLYDFIHTSFAEVVSKGKGKK
Take B4: the binding result in experiment [1] and in experiment [2] was “binds” throughout.
